Values from PubChem BioAssay AID1671195 (Yale University, 2021)
The whole screen tested about 22,000 reagents; shown is a random part of them. Of all reagents, about 1,510 (6.9%) got an active call. 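Active includes knockdowns raising or lowering LDL uptake; positive z-scores mean more uptake, negative mean less.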 Unmarked entries are inactive. Reagent sequences are not shown.

Screen: 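Knockdowns that increase or decrease uptake of fluorescent LDL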 (primary screen)
Cell system: human Huh7 hepatoma cells
Reagent: siRNA pool against human genes, 18 nM
Time to read-out: about 2 to 2.5 days of knockdown, then 8 h LDL uptake
Challenge: DiI-labelled LDL at 30 µg/ml for 8 h, in lipoprotein-deficient serum medium
Read-out: 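Per-cell DiI-LDL intensity by automated imaging; well means scaled to the plate median and given as a robust z-score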
Reading the numbers: robust z-score: higher = more LDL uptake after knockdown
Active means: 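a gene counts as active if at least two replicate z-scores exceed ±2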

gene	robust z-score, replicate 1	robust z-score, replicate 2	robust z-score, replicate 3
LINC01018	-0.279	-0.275	-0.24
RAD18	-1.23	0.0596	0.407
TMEM212	-0.849	-0.553	-0.785
SBDS	-1.29	-0.884	-0.503
CAMSAP2	-0.129	-1.61	0.904
ZBED2	0.0498	-0.466	-0.236
CRYZL1	-0.96	-0.783	-1.12
PRPH	2.33 (active)	2.62	1.33
TMEM270	3.08 (active)	2.74	2.05
LRP6	-0.304	0.045	-0.127
KRT18	0.25	0.313	0.184
ZWINT	-0.464	-0.886	0.00873
MYO18B	1.87	2.5	0.163
LOC440937 (retired record)	-0.134	0.644	0.394
NDUFB3	1.09	-0.0466	1.03
ACSL6	-1.28	-0.856	-1.32
SEPHS1	-1.91	-1.95	-1.66
NHSL1	2.1 (active)	1.95	0.646
SH2D5	0.772	1.03	0.809
ULBP2	-0.757	-0.495	-0.966
CSDC2	0.54	0.431	0.0282
ITM2B	2.19	1.53	0.975
VCAN	-0.23	-0.342	0.133
GLI3	-0.676	-0.12	-0.333
LOC391859 (retired record)	0.979	0.699	0.293
TRMT10B	-1.81	-1.69	-1.06
LINC00487	0.298	0.231	0.398
SARNP	0.14	-0.0107	-0.127
